One substance from PMC2994726 (PLoS ONE, 2010) can be followed below.

Chains of the proteins cited; added tags and fusions are not shown.
UniProt P25095: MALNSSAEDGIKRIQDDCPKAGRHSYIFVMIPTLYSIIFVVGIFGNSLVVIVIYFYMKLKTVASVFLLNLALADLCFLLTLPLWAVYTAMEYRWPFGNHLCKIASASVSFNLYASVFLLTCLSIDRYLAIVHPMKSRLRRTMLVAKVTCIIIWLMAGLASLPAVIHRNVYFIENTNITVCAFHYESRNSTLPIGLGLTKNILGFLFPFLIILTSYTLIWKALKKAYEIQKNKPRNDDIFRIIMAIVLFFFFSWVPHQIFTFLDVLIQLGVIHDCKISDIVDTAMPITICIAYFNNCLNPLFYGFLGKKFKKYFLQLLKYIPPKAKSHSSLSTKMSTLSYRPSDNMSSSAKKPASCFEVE

For this experiment, the target named is Luc-tagged rat AT1a receptor (rAT1aR-Renilla Luc), WT, full length (rat) (UniProt P25095). Nature of the experiment: FRET or BRET; BRET1 in live HEK293 cells co-transfected with Luc-tagged AT1R and YFP-β-arrestin2, with or without overexpressed Gαq; dose-response to Ang II. On the technique in general: Bioluminescence resonance energy transfer reports proximity on the nanometre scale.

No constants are given. Whether binding was seen depends on the method and setting. Binding seen in cells or lysates may run through a third protein. Some results given as binding are weak or reduced against the parent protein; the word gives no strength.

Turning to “YFP-β-arrestin2 (from UniProt P32121 1-409)”, the binding entry was “binds”.
